In PubChem BioAssay AID2517 (National Center for Advancing Translational Sciences (NCATS), 2010):
“And” between values parts separate entries of the source, which are not always exact repeats. Equal values may be shown once. Out of some 350,000 compounds screened, about 1,200 (0.34%) were called active. The shares of active, inactive and inconclusive entries below differ from those in the screen. The call rests on the fitted dose curve; in most records, active means well fitted inhibition curve with a large enough effect; inconclusive means small, poorly fitted or top-dose-only effect; inactive means no such curve, though single readings can be large or run the other way. Potencies beside an inconclusive call are fits to weak or partial responses and may not hold up.

Chains of the proteins cited; added tags and fusions are not shown.
UniProt P27695, whole entry, looked up: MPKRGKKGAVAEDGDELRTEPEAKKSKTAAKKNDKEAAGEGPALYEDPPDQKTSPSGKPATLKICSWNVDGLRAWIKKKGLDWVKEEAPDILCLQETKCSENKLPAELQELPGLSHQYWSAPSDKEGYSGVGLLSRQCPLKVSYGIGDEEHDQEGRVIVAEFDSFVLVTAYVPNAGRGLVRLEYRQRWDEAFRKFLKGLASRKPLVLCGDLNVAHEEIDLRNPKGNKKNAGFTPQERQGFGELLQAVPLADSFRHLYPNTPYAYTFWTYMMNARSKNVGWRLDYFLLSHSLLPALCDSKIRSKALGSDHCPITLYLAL

molecular target: DNA repair nuclease/redox regulator APEX1 (Homo sapiens) (UniProt P27695); test: qHTS Assay for Inhibitors of the Human Apurinic/apyrimidinic Endonuclease 1 (APE1); settings: recombinant APE1, TAMRA/BHQ-2 abasic DNA cleavage fluorescence; series mostly up to 65.8 µM; further: nearly all actives have a fitted effect of over 55% in size
How it was run: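 APE1 at 0.75 nM final was preincubated with compound 15 min at room temperature, then 50 nM double-stranded THF abasic-site substrate (5'-TAMRA/3'-BHQ-2) was added. Fluorescence (ex 525/em 598 nm) was read kinetically; third-minus-first read gave activity.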
Potency means the concentration at half of the fitted maximal effect.

With CCOC(=O)c1cc2c(=O)n3ccccc3nc2n(Cc2ccco2)c1=NC(=O)c1cccc(OC)c1 as the compound, how does the Potency read?
Its Potency is “inactive”.

NS(=O)(=O)c1ccc(CCNC(=O)CSc2nc3ccccc3c3nc(CCN4CCCCC4)nn23)cc1 was tested. Which Potency did it give?
Its Potency is “inactive”.

Which Potency does the source give for CC1=Nc2ccccc2/C1=C/c1sc(=S)n(-c2cccc(C(=O)O)c2)c1O here?
The Potency was “inactive”.

For CC1(C)CC(=O)C(C=Nc2ccc3c(c2)OCO3)=C(O)C1, which Potency is on record?
Its Potency is inconclusive: 5.62 µM [inhibitor, single point].

How did the Potency turn out when Cc1ccccc1N1C(S)=C(C#N)C(=O)NC1c1cccs1 (centres undefined) was run?
Its Potency is inconclusive: 0.02 µM [inhibitor, full curve, poor fit].

For C[C@H](C(=O)O)c1ccc2cc(O)ccc2c1, which Potency is on record?
Its Potency is “inactive”.

Which Potency does the source give for CCN1C(=O)/C(=C\C(=O)c2cccs2)c2cc(Br)ccc21 here?
Its Potency is inconclusive: 35.5 µM [inhibitor, partial curve].

How did the Potency turn out when COc1ccc(N2CCN(C(=O)c3ccc(Cn4c(=S)[nH]c5ccc(N6CCOCC6)cc5c4=O)cc3)CC2)cc1 was run?
Its Potency is inconclusive: 0.0891 µM [inhibitor, full curve].

CC(=O)C1=C(c2ccccc2)NC(=O)NC1c1ccc2c(c1)OCO2 (centres undefined) was tested. Which Potency did it give?
The Potency was “inactive”.

With Cc1cccc(Cn2c(N3CCN(c4ccccc4)CC3)nc3c2c(=O)n(C)c(=O)n3C)c1 as the compound, how does the Potency read?
Its Potency is inconclusive: 17.8 µM [inhibitor, partial curve].

With C/C(=N\Nc1ccc(Cl)c(C(=O)O)c1)c1ccc[nH]1 as the compound, how does the Potency read?
The Potency was inconclusive: 39.8 µM [inhibitor, single point].

Which Potency does the source give for CCOC(=O)Nc1ccc(NCc2ccc(F)cc2)nc1N here?
The Potency was “inactive and inconclusive: 44.7 µM [inhibitor, single point]”.

With CCC(=O)Nc1cc(C(=O)OCC(=O)c2ccccc2)ccc1C as the compound, how does the Potency read?
The Potency was inconclusive: 0.141 µM [inhibitor, full curve, poor fit].

With Cc1c(-c2ccc(Cl)cc2)[n+](=O)c2c(n1[O-])CCCC2 as the compound, how does the Potency read?
Its Potency is inconclusive: 8.91 µM [inhibitor, single point].

CC1CCC2(CC1)NC(=O)N(CC(=O)Nc1sc3c(c1C(N)=O)CCC3)C2=O (centres undefined) was tested. Which Potency did it give?
Its Potency is inconclusive: 31.6 µM [inhibitor, single point].

COc1ccc(-c2nc3ccc(N4CCCC4)cc3c(=O)[nH]2)cc1OC was tested. Which Potency did it give?
Its Potency is “inactive”.

O=c1cc(-c2ccccc2Cl)oc2c([N+](=O)[O-])c(O)cc(O)c12 was tested. Which Potency did it give?
Its Potency is inconclusive: 3.16 µM [inhibitor, single point].

With CC(C)N=C1SC(CC(=O)Nc2ccccc2)C(=O)N1C(C)C (centres undefined) as the compound, how does the Potency read?
The Potency was inconclusive: 1.12 µM [inhibitor, full curve, poor fit].

Cc1c(C)c2ccc(OCc3ccc(C(=O)O)o3)c(C)c2oc1=O was tested. Which Potency did it give?
The Potency was inconclusive: 35.5 µM [inhibitor, single point].
